From PMC8274477
These are yes or no findings as the source states them, for the method shown. Some binding calls cover weakened binding; strength is not graded here.

The chains behind the UniProt entries cited, without tags or fusion partners.
UniProt P19793: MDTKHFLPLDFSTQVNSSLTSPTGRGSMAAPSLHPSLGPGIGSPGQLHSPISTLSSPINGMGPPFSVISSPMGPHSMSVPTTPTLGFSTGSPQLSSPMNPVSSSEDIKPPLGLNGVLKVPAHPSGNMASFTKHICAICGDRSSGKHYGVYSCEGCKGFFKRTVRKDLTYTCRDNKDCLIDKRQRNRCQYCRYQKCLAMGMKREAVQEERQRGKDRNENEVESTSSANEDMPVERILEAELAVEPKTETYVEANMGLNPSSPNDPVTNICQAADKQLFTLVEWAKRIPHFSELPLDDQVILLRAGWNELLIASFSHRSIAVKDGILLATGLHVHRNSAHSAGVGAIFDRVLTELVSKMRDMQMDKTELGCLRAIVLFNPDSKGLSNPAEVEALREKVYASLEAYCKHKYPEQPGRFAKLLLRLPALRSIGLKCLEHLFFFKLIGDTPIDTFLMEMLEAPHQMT

What was measured:
Test in all cases: peptide or protein array; HuProt human proteome microarray; 5 ug/5 ml biotin-labelled LUBAC or OTULIN in solution, 1 h at room temperature; Cy5-streptavidin, scanned at 635 nm; BSA as negative control; hits: Z-score >= 3 and I_(Mean_Ratio) >= 1.4; both purified
ITPKB (human) = biological target: T1, ITPKB (human) (UniProt P27987)
T1 sequence: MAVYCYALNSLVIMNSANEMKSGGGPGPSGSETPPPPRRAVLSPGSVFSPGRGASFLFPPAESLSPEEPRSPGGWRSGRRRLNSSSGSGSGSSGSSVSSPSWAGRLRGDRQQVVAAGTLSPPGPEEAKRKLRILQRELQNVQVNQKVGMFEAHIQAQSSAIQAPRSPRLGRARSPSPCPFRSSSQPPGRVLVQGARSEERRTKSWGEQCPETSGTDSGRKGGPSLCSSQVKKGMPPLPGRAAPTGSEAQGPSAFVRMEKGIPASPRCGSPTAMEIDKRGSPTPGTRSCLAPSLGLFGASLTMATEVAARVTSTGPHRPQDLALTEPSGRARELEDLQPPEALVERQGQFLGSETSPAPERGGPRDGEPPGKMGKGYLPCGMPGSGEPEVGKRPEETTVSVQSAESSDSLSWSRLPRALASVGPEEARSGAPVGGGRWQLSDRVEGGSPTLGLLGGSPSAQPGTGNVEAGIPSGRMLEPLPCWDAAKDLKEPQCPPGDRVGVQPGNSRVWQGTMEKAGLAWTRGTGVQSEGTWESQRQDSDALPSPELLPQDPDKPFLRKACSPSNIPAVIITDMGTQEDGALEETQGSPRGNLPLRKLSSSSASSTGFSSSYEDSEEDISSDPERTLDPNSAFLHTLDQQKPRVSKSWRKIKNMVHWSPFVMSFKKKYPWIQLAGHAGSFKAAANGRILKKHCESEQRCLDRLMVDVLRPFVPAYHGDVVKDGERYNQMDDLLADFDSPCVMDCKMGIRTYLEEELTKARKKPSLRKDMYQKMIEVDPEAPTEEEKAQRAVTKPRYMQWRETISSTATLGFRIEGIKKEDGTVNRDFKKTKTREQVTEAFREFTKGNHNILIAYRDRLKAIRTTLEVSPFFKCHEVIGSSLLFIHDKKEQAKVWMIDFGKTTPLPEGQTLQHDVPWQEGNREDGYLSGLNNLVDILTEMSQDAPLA

SDS (human) = biological target: T2, SDS (human) (UniProt P20132)
T2 sequence: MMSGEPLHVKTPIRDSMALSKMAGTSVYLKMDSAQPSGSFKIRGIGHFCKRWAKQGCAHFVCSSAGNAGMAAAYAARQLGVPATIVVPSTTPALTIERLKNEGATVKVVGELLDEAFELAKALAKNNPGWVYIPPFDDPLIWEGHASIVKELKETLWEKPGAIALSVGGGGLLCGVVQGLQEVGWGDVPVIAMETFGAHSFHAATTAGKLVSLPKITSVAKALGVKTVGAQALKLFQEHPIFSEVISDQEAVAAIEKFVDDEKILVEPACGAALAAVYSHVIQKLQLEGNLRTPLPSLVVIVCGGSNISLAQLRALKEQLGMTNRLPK

RXRA (human) = RXRA (human) (UniProt P19793)

binding (ITPKB (human)): binds
binding (SDS (human)): binds
binding (RXRA (human)): binds
Substance: linear ubiquitin chain assembly complex (LUBAC), purified as HIS-tagged HOIP with the subunit HOIL-1, biotin-labelled (from UniProt Q96EP0 1-1072; Q9BYM8 1-510)
